# US20220235138A1, “CAR-T CELLS TARGETING IL-1RAP AND THEIR USE IN ACUTE MYELOID LEUKEMIA (AML)” (ETABLISSEMENT FRANCAIS DU SANG, priority 2019, published 2022)
# These are yes or no findings as the source states them, for the method shown. Some results given as binding are weak or reduced against the parent protein; the word gives no strength.
# B1: mouse anti-hIL-1RAP monoclonal antibody, clone #E3C3 (antibody, V domains shown)
# VH: QVQLQQPGAELMMPGASVKVSCEASGYTFTDSWMHWVKQRPGQGLEWIGAIDPSDSYTTYNQKFTGKATLSVDESSNTAYMQLSSLTSEDSAVYYCARYYSGSNYISPFPYWGQGTLVTVSA
# VL: DIVMTQSHKFMSTSVGDRVTITCKASLDVSTAVAWYQQKPGQSPKLLIYSASYRYTGVPDRFTGSGSGTDFTFTISSVQAEDLAVYYCQQHYSPPFTFGSGTNLEIK
# What was measured:
# [1] = biological target: T1, IL-1RAP expressed at the cell surface of human cells (human), Q9NPH3; assay: FACS screening of hybridoma subclones on IL-1RAP-positive and -negative cell lines; settings: remark: other sources report otherwise
# [2] = biological target: T1, IL-1RAP expressed at the cell surface …; assay: cell surface staining (flow cytometry) of AML cell lines; the same paragraph also reports a western blot signal with #A3C3; settings: remark: other sources report otherwise
binder,measurement,setting,value
B1,binding,[1],binds
same,binding,[2],binds
